Test results as given in the supplement of paper PMC10849652.
Some of the results follow.

The chains behind the UniProt entries cited, without tags or fusion partners. Where a name states a change or a piece, a line headed by the entry shows the natural chain unless it says otherwise.
UniProt Q7Z7M0: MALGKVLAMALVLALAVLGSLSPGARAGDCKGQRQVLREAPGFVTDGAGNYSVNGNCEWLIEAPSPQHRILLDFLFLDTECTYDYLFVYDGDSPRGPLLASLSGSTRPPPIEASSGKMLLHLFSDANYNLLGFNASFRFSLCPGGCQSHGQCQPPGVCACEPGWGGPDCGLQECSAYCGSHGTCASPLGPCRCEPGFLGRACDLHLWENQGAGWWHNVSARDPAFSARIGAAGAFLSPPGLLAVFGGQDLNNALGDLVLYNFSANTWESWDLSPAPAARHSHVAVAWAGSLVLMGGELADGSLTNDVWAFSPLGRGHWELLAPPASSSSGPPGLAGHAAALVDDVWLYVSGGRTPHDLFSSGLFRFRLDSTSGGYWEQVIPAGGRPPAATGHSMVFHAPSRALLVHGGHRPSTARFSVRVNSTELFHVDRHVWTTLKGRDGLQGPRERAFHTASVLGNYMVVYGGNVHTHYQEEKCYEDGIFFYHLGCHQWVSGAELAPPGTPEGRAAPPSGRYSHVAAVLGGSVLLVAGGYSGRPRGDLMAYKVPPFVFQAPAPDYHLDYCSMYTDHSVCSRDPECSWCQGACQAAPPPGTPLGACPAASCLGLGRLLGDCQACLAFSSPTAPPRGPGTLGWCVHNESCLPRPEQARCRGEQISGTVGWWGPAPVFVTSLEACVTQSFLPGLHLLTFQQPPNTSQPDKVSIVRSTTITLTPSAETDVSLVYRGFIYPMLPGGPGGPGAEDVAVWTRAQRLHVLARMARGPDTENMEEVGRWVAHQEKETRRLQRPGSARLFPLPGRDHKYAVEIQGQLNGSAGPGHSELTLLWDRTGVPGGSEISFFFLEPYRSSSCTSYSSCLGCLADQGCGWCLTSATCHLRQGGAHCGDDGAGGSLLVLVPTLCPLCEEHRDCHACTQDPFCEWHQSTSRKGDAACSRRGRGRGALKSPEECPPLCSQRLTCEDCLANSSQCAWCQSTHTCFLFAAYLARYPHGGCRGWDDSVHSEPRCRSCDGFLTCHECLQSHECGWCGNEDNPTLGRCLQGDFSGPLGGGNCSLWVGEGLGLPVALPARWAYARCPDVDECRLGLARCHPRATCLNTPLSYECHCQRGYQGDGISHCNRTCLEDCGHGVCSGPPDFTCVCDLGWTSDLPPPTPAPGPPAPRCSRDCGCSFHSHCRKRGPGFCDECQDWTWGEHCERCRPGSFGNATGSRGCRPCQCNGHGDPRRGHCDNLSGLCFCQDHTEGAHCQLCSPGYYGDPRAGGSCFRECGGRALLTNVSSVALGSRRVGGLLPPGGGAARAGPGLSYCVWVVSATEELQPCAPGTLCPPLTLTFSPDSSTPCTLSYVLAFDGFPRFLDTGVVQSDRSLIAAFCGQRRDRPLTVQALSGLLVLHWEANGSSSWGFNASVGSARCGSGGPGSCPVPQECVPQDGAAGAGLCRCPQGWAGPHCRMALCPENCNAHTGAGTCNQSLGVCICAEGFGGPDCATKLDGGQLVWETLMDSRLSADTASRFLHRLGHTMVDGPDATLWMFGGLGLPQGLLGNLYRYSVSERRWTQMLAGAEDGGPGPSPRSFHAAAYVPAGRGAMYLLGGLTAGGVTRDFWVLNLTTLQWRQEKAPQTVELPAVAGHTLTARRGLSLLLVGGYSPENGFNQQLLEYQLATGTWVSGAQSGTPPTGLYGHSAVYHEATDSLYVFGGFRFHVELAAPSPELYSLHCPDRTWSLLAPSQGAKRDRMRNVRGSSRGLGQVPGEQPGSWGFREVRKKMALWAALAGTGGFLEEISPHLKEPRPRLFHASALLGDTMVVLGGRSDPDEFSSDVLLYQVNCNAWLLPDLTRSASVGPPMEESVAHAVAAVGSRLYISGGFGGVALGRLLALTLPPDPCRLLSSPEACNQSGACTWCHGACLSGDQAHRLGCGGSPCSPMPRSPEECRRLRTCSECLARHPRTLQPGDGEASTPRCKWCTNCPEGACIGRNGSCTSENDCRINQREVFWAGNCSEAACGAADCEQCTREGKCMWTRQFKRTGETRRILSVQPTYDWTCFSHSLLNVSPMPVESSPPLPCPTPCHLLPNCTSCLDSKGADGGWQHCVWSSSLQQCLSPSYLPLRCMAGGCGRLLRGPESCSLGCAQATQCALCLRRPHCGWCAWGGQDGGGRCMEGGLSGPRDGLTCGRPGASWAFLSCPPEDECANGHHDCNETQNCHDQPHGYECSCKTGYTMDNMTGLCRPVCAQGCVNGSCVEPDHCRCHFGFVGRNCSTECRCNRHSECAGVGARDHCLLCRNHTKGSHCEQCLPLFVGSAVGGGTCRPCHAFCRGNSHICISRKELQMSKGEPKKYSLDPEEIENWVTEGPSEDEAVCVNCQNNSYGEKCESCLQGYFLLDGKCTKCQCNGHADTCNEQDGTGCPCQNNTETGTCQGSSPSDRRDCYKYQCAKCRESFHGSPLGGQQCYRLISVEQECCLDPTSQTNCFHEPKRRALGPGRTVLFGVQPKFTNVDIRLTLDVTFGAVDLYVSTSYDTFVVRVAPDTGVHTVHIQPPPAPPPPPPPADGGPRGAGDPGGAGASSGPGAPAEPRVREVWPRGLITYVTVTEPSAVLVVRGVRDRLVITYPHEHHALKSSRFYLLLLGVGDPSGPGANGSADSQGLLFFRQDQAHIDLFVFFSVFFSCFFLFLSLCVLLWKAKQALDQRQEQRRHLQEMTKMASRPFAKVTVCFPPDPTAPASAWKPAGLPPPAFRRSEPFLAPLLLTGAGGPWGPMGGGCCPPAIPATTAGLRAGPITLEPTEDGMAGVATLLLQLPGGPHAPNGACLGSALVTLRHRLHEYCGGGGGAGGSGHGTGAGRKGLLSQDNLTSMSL
UniProt Q6P1Q9: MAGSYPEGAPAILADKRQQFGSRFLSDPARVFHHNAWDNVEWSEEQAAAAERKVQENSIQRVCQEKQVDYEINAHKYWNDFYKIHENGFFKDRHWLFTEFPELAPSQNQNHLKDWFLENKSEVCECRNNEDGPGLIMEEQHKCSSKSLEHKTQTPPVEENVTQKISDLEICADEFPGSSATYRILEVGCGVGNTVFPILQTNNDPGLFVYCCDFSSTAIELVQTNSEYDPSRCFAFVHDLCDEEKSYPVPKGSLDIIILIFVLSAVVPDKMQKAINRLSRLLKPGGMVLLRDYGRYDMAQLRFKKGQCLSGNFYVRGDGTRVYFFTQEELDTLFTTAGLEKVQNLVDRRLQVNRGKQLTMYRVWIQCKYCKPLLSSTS
UniProt P55082: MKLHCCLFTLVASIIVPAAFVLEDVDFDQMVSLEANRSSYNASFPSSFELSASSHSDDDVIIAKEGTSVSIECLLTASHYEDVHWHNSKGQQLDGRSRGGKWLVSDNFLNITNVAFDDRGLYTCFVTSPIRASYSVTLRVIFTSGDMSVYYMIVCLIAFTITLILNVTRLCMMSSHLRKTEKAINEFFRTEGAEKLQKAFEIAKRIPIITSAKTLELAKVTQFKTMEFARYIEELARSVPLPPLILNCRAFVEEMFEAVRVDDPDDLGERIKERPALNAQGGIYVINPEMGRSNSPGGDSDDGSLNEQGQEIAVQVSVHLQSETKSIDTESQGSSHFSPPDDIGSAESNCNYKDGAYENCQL
UniProt Q5SR56: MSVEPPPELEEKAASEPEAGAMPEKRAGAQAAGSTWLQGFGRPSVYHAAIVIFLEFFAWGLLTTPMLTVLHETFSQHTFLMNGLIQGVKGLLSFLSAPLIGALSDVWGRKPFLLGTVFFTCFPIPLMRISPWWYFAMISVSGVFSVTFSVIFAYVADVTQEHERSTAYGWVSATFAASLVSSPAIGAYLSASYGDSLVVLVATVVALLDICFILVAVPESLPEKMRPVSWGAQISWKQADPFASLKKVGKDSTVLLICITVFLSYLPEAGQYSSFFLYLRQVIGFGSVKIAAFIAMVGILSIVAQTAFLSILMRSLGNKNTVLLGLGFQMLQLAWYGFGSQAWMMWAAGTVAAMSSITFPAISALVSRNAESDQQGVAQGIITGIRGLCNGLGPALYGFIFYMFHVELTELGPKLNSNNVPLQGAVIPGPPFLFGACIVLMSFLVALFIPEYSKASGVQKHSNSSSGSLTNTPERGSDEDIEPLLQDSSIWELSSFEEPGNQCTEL
UniProt Q6ZSS7: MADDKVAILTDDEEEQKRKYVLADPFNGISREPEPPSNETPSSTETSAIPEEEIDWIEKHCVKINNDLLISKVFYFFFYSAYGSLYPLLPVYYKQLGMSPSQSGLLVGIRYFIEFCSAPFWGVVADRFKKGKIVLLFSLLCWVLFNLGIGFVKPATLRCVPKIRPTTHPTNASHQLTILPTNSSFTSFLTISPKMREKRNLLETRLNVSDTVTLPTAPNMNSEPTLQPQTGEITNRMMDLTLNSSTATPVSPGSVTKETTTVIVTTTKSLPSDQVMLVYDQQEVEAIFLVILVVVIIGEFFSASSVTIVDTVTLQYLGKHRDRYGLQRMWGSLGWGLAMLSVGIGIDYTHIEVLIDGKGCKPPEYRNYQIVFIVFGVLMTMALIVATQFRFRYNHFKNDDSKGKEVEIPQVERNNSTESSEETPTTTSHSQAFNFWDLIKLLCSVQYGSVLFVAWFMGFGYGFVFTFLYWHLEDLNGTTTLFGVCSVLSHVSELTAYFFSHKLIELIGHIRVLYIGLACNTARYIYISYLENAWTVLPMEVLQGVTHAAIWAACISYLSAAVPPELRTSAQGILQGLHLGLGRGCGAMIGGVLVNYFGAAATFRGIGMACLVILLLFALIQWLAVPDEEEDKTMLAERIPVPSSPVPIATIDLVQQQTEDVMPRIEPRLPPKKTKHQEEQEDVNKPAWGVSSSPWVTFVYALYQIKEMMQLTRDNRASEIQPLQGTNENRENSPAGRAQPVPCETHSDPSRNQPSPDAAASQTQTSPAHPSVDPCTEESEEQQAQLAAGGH
UniProt O15151: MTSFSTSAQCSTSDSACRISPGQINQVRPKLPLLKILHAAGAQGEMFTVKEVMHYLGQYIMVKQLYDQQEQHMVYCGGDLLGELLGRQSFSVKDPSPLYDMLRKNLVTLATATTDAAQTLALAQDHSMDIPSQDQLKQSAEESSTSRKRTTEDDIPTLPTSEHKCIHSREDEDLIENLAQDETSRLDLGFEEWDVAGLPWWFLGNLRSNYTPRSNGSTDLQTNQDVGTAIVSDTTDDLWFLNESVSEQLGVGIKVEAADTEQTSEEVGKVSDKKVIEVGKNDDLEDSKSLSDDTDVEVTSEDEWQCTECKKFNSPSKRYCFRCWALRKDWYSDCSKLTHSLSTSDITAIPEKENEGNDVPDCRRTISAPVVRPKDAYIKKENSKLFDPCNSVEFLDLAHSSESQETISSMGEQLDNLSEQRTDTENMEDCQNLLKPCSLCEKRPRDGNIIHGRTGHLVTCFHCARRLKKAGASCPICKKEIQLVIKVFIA
UniProt Q9H1A3: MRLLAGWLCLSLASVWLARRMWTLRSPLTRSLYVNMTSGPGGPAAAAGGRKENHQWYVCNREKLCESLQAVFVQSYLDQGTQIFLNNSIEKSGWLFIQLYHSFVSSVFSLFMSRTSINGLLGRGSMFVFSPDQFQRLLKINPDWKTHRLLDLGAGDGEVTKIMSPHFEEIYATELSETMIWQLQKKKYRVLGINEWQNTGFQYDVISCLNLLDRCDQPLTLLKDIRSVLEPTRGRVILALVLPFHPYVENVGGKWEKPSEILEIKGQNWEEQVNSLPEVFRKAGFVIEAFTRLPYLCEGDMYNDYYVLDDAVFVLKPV
UniProt Q71SY5: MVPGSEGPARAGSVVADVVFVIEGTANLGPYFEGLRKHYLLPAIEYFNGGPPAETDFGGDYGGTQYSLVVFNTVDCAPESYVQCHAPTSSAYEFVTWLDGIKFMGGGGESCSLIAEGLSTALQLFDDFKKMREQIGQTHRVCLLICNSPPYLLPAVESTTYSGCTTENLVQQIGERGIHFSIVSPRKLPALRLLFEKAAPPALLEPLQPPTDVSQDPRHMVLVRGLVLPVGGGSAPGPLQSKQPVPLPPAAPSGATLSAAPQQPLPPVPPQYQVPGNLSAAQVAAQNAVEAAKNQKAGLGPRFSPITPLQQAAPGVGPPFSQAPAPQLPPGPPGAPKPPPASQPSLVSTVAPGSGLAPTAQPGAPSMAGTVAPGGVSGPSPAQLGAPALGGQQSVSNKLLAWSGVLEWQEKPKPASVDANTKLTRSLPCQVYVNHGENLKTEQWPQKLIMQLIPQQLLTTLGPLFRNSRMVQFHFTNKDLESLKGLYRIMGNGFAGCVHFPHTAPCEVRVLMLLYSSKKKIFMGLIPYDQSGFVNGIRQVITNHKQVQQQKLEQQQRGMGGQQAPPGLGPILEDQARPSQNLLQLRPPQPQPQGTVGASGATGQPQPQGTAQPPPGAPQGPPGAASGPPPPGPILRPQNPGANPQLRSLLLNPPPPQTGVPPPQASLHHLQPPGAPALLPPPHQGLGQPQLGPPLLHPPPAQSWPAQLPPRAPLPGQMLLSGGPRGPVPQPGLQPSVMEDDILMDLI

Columns and labels:
Test in all cases: log2 fold change, soluble protein after heating vs DMSO (PISA); higher = thermal stabilisation; K562 lysate, 10 uM; active = over 0.2 and 3.5 SD of the protein, either way, in both replicates (recomputed)
barasertib = compound: CCN(CCCOc1ccc2c(Nc3cc(CC(=O)Nc4cccc(F)c4)[nH]n3)ncnc2c1)CCOP(=O)(O)O [barasertib]
How it was run: (§1)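 Following dounce homogenisation of K562 pellets in PBS pH 7.4 with 1 mM MgCl2, crude extract at 1 mg/mL protein was incubated for 30 min with 10 μM compound. Aliquots were then heated for 3 min over 48°C-58°C and pooled, NP-40 was added to 0.5% at 4°C, and soluble protein was recovered as the supernatant at 21,000xg for 90 min. Channel-sum-equalised TMTpro 16plex LC-MS/MS quantified this protein. Each value, from duplicates, is a log-two fold change in thermal stability relative to solvent controls.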

[1] = compound: CC[C@@H]1C(=O)N(C)c2cnc(Nc3ccc(C(=O)NC4CCN(C)CC4)cc3OC)nc2N1C1CCCC1
How it was run: as §1

[2] = compound: CCn1c(C(=O)N(C2CC2)C2CC2)cc2c3c(ncn3C)c(Nc3cc(C)n(C)n3)nc21
How it was run: as §1

[3] = compound: CCn1cc(-c2ccnc3[nH]c(-c4cccc(CN(C)C)c4)cc23)c(-c2ccc(NC(=O)N(C)C)cc2)n1
How it was run: as §1

[4] = compound: CN1CCC(CNc2ccc3ncc(-c4cccc(OC(F)(F)F)c4)n3n2)CC1
How it was run: as §1

saracatinib = compound: CN1CCN(CCOc2cc(OC3CCOCC3)c3c(Nc4c(Cl)ccc5c4OCO5)ncnc3c2)CC1 [saracatinib]
How it was run: as §1

sotrastaurin = compound: CN1CCN(c2nc(C3=C(c4c[nH]c5ccccc45)C(=O)NC3=O)c3ccccc3n2)CC1 [sotrastaurin]
How it was run: as §1

alvocidib = compound: CN1CC[C@H](c2c(O)cc(O)c3c(=O)cc(-c4ccccc4Cl)oc23)[C@H](O)C1 [alvocidib]
How it was run: as §1

Tubastatin A = compound: CN1CCc2c(c3ccccc3n2Cc2ccc(C(=O)NO)cc2)C1 [Tubastatin A]
How it was run: as §1

[5] = compound: CNC(=O)C1=CC=CC=C1NC2=NC(=NC=C2Cl)NC3=C(C=C(C=C3)N4CCOCC4)OC
How it was run: as §1

[6] = compound: CNc1nc(-c2ccc3c(N)n[nH]c3c2)cc(N2C[C@@H](C(=O)NC3CCCCC3)CC[C@H]2C)n1
How it was run: as §1

encorafenib = compound: COC(=O)N[C@@H](C)CNc1nccc(-c2cn(C(C)C)nc2-c2cc(Cl)cc(NS(C)(=O)=O)c2F)n1 [encorafenib]
How it was run: as §1

[7] = compound: COC(=O)[C@H](CCSC)NC(=O)C1=C(C=C(C=C1)NC[C@H](CS)N)C2=CC=CC=C2
How it was run: as §1

[8] = compound: CCCS(=O)(=O)Nc1ccc(F)c(C(=O)c2c[nH]c3ncc(Cl)cc23)c1F
How it was run: as §1

volasertib = compound: CC[C@@H]1C(=O)N(C)c2cnc(Nc3ccc(C(=O)N[C@H]4CC[C@H](N5CCN(CC6CC6)CC5)CC4)cc3OC)nc2N1C(C)C [volasertib]
How it was run: as §1

[9] = compound: COc1cc2nc(-c3cc(F)ccc3O)nc(N[C@@H]3CNC[C@H]3C(C)(C)O)c2cc1OC
How it was run: as §1

vemurafenib = compound: CCCS(=O)(=O)Nc1ccc(F)c(C(=O)c2c[nH]c3ncc(-c4ccc(Cl)cc4)cc23)c1F [vemurafenib]
How it was run: as §1

defactinib = compound: CNC(=O)c1ccc(Nc2ncc(C(F)(F)F)c(NCc3nccnc3N(C)S(C)(=O)=O)n2)cc1 [defactinib]
How it was run: as §1

alisertib = compound: COc1cc(Nc2ncc3c(n2)-c2ccc(Cl)cc2C(c2c(F)cccc2OC)=NC3)ccc1C(=O)O [alisertib]
How it was run: as §1

gefitinib = compound: COc1cc2ncnc(Nc3ccc(F)c(Cl)c3)c2cc1OCCCN1CCOCC1 [gefitinib]
How it was run: as §1

Target | log2 fold change (barasertib) | log2 fold change [1] | log2 fold change [2] | log2 fold change [3] | log2 fold change [4] | log2 fold change (saracatinib) | log2 fold change (sotrastaurin) | log2 fold change (alvocidib) | log2 fold change (Tubastatin A) | log2 fold change [5] | log2 fold change [6] | log2 fold change (encorafenib) | log2 fold change [7] | log2 fold change [8] | log2 fold change (volasertib) | log2 fold change [9] | log2 fold change (vemurafenib) | log2 fold change (defactinib) | log2 fold change (alisertib) | log2 fold change (gefitinib)
MEGF8 (UniProt Q7Z7M0) | inactive: 0.049 | inactive: 0.076 | inactive: -0.048 | inactive: 0.124 | inactive: 0.028 | inactive: 0.283 | inactive: -0.003 | inactive: 0.03 | inactive: 0.156 | inactive: 0.058 | inactive: -0.051 | inactive: -0.01 | inactive: 0.131 | – | – | – | – | – | – | –
METTL2B (UniProt Q6P1Q9) | inactive: -0.019 | – | – | inactive: 0.11 | inactive: 0.025 | inactive: 0.108 | inactive: 0.148 | inactive: -0.024 | – | – | inactive: -0.166 | – | – | inactive: 0.008 | inactive: -0.126 | inactive: -0.013 | – | – | – | –
MFAP3 (UniProt P55082) | – | – | inactive: 0.124 | inactive: -0.04 | inactive: 0.05 | inactive: 0.158 | inactive: -0.018 | inactive: 0.041 | inactive: 0.005 | inactive: -0.138 | inactive: -0.181 | – | – | – | – | – | inactive: 0.128 | inactive: 0.021 | – | –
MFSD14B (UniProt Q5SR56) | – | inactive: -0.006 | inactive: -0.097 | inactive: -0.054 | inactive: 0.032 | – | inactive: -0.176 | inactive: -0.042 | inactive: 0.264 | inactive: -0.087 | – | inactive: 0.029 | inactive: -0.001 | – | – | – | – | – | inactive: 0.09 | inactive: -0.269
MED24 (UniProt F5H5K2) | – | – | – | – | – | – | – | – | – | – | – | – | – | – | – | – | – | – | inactive: -0.02 | inactive: -0.015
MFSD6 (UniProt Q6ZSS7) | inactive: 0.038 | inactive: 0.013 | inactive: -0.118 | inactive: 0.018 | inactive: 0.088 | inactive: -0.179 | – | inactive: 0.197 | inactive: 0.06 | inactive: 0.026 | inactive: 0.094 | inactive: 0.001 | inactive: -0.085 | – | – | – | – | – | – | –
MDM4 (UniProt O15151) | – | inactive: 0.027 | – | inactive: 0.081 | inactive: -0.09 | inactive: 0.227 | inactive: 0.125 | inactive: -0.139 | – | – | inactive: 0.063 | inactive: -0.263 | inactive: 0.204 | – | – | – | inactive: 0.013 | inactive: 0.008 | – | –
MBD4 (UniProt O95243) | – | inactive: 0.036 | – | inactive: 0.007 | inactive: -0.021 | inactive: -0.223 | inactive: 0.106 | inactive: -0.024 | – | – | inactive: -0.062 | inactive: 0.138 | inactive: -0.034 | inactive: -0.153 | inactive: -0.083 | inactive: -0.123 | – | – | inactive: -0.019 | inactive: 0.032
METTL9 (UniProt Q9H1A3) | inactive: 0.098 | – | inactive: 0.203 | inactive: -0.115 | inactive: -0.129 | inactive: -0.108 | inactive: -0.075 | inactive: 0.372 | inactive: -0.165 | inactive: -0.005 | inactive: -0.037 | – | – | inactive: 0.116 | inactive: -0.186 | inactive: 0.071 | – | – | inactive: -0.023 | inactive: 0.044
MED25 isoform 3 (UniProt Q71SY5) | inactive: 0.034 | active: -0.256 | inactive: -0.046 | inactive: 0.013 | inactive: -0.056 | inactive: 0.032 | inactive: 0.083 | inactive: 0 | inactive: 0.056 | inactive: -0.033 | inactive: -0.022 | inactive: -0.123 | inactive: 0.005 | inactive: 0.018 | inactive: -0.032 | inactive: 0.01 | – | – | inactive: 0.125 | inactive: -0.029

Single entries from above:
Value of MFSD6 (UniProt Q6ZSS7) under log2 fold change [4]: inactive: 0.088
Value of MED24 (UniProt F5H5K2) under log2 fold change (alisertib): inactive: -0.02
